In the supplement of paper PMC11546906:
Where a name gives a salt, the structure may show the parent alone. The list shows a part of the results. This data set is noisy: repeats of one test often differ as much as different tests do.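 FDA-approved drugs were each paired with colistin at one-eighth its MIC and screened against a multidrug-resistant, mcr-1-positive clinical E. coli isolate, with OD600 read after 24 h. Drug-free bacteria served as growth control, plain broth as blank. Combinations were active if OD600 dropped below 0.2.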

What follows are molecules tested on Escherichia coli 42 (mcr-1-positive clinical isolate) (assay: OD600 after 24 h growth with compound plus colistin (absorbance units (OD600)); higher = more bacterial growth (less inhibition)). Conditions: first compound 25 µM; colistin concentration 0.5 ug/mL; incubation time 24 h; 37 °C.
For `CCN[C@H]1CN(CCCOC)S(=O)(=O)c2sc(S(N)(=O)=O)cc21` [Brinzolamide] + CCC(C)CCCC(=O)N[C@@H](CCN)C(=O)N[C@H](C(=O)N[C@@H](CCN)C(=O)N[C@H]1CCNC(=O)[C@H]([C@@H](C)O)NC(=O)[C@H](CCN)NC(=O)[C@H](CCN)NC(=O)[C@H](CC(C)C)NC(=O)[C@@H](CC(C)C)NC(=O)[C@H](CCN)NC1=O)[C@@H](C)O [colistin], the OD600 was inactive: 1.
In the case of `C[C@]12CC[C@@H]3c4ccc(O)cc4C[C@@H](CCCCCCCCC[S+]([O-])CCCC(F)(F)C(F)(F)F)[C@H]3[C@@H]1CC[C@@H]2O` (some centres undefined) [Fulvestrant] + CCC(C)CCCC(=O)N[C@@H](CCN)C(=O)N[C@H](C(=O)N[C@@H](CCN)C(=O)N[C@H]1CCNC(=O)[C@H]([C@@H](C)O)NC(=O)[C@H](CCN)NC(=O)[C@H](CCN)NC(=O)[C@H](CC(C)C)NC(=O)[C@@H](CC(C)C)NC(=O)[C@H](CCN)NC1=O)[C@@H](C)O [colistin], the OD600 is reported as inactive: 1.1.
In the case of `Cc1ccnc2c1NC(=O)c1cccnc1N2C1CC1` [Nevirapine] + CCC(C)CCCC(=O)N[C@@H](CCN)C(=O)N[C@H](C(=O)N[C@@H](CCN)C(=O)N[C@H]1CCNC(=O)[C@H]([C@@H](C)O)NC(=O)[C@H](CCN)NC(=O)[C@H](CCN)NC(=O)[C@H](CC(C)C)NC(=O)[C@@H](CC(C)C)NC(=O)[C@H](CCN)NC1=O)[C@@H](C)O [colistin], the OD600 is reported as inactive: 1.06.
`CC(=O)[C@H]1CC[C@H]2[C@@H]3C[C@H](C)C4=CC(=O)CC[C@]4(C)[C@H]3[C@@H](O)C[C@]12C` [Medrysone] + CCC(C)CCCC(=O)N[C@@H](CCN)C(=O)N[C@H](C(=O)N[C@@H](CCN)C(=O)N[C@H]1CCNC(=O)[C@H]([C@@H](C)O)NC(=O)[C@H](CCN)NC(=O)[C@H](CCN)NC(=O)[C@H](CC(C)C)NC(=O)[C@@H](CC(C)C)NC(=O)[C@H](CCN)NC1=O)[C@@H](C)O [colistin] was tested, and the OD600 was inactive: 1.26.
In the case of `CCCCCOC(=O)Nc1nc(=O)n([C@@H]2O[C@H](C)[C@@H](O)[C@H]2O)cc1F` [Capecitabine] + CCC(C)CCCC(=O)N[C@@H](CCN)C(=O)N[C@H](C(=O)N[C@@H](CCN)C(=O)N[C@H]1CCNC(=O)[C@H]([C@@H](C)O)NC(=O)[C@H](CCN)NC(=O)[C@H](CCN)NC(=O)[C@H](CC(C)C)NC(=O)[C@@H](CC(C)C)NC(=O)[C@H](CCN)NC1=O)[C@@H](C)O [colistin], the OD600 is reported as inactive: 0.683.
In the case of `CCN(c1cc(-c2ccc(CN3CCOCC3)cc2)cc(C(=O)NCc2c(C)cc(C)[nH]c2=O)c1C)C1CCOCC1` [Tazemetostat] + CCC(C)CCCC(=O)N[C@@H](CCN)C(=O)N[C@H](C(=O)N[C@@H](CCN)C(=O)N[C@H]1CCNC(=O)[C@H]([C@@H](C)O)NC(=O)[C@H](CCN)NC(=O)[C@H](CCN)NC(=O)[C@H](CC(C)C)NC(=O)[C@@H](CC(C)C)NC(=O)[C@H](CCN)NC1=O)[C@@H](C)O [colistin], the OD600 is reported as inactive: 0.97.
`CCCCN1CCCCC1C(=O)Nc1c(C)cccc1C` (centres undefined) [Bupivacaine hydrochloride] + CCC(C)CCCC(=O)N[C@@H](CCN)C(=O)N[C@H](C(=O)N[C@@H](CCN)C(=O)N[C@H]1CCNC(=O)[C@H]([C@@H](C)O)NC(=O)[C@H](CCN)NC(=O)[C@H](CCN)NC(=O)[C@H](CC(C)C)NC(=O)[C@@H](CC(C)C)NC(=O)[C@H](CCN)NC1=O)[C@@H](C)O [colistin] was tested, and the OD600 was inactive: 0.901.
With `CC(C)(C)NCC(O)c1ccc(O)c(CO)c1` (centres undefined) [Salbutamol] + CCC(C)CCCC(=O)N[C@@H](CCN)C(=O)N[C@H](C(=O)N[C@@H](CCN)C(=O)N[C@H]1CCNC(=O)[C@H]([C@@H](C)O)NC(=O)[C@H](CCN)NC(=O)[C@H](CCN)NC(=O)[C@H](CC(C)C)NC(=O)[C@@H](CC(C)C)NC(=O)[C@H](CCN)NC1=O)[C@@H](C)O [colistin] the OD600 was inactive: 1.14.
For `CC#C[C@]1(O)CC[C@H]2[C@@H]3CCC4=CC(=O)CCC4=C3[C@@H](c3ccc(N(C)C)cc3)C[C@@]21C` [Mifepristone] + CCC(C)CCCC(=O)N[C@@H](CCN)C(=O)N[C@H](C(=O)N[C@@H](CCN)C(=O)N[C@H]1CCNC(=O)[C@H]([C@@H](C)O)NC(=O)[C@H](CCN)NC(=O)[C@H](CCN)NC(=O)[C@H](CC(C)C)NC(=O)[C@@H](CC(C)C)NC(=O)[C@H](CCN)NC1=O)[C@@H](C)O [colistin], the OD600 was inactive: 1.15.
With `CCCCc1nc(Cl)c(CO)n1Cc1ccc(-c2ccccc2-c2nnn[nH]2)cc1` [Losartan potassium] + CCC(C)CCCC(=O)N[C@@H](CCN)C(=O)N[C@H](C(=O)N[C@@H](CCN)C(=O)N[C@H]1CCNC(=O)[C@H]([C@@H](C)O)NC(=O)[C@H](CCN)NC(=O)[C@H](CCN)NC(=O)[C@H](CC(C)C)NC(=O)[C@@H](CC(C)C)NC(=O)[C@H](CCN)NC1=O)[C@@H](C)O [colistin] the OD600 was inactive: 1.14.
For `N#CC[C@H](C1CCCC1)n1cc(-c2ncnc3[nH]ccc23)cn1` [Ruxolitinib phosphate] + CCC(C)CCCC(=O)N[C@@H](CCN)C(=O)N[C@H](C(=O)N[C@@H](CCN)C(=O)N[C@H]1CCNC(=O)[C@H]([C@@H](C)O)NC(=O)[C@H](CCN)NC(=O)[C@H](CCN)NC(=O)[C@H](CC(C)C)NC(=O)[C@@H](CC(C)C)NC(=O)[C@H](CCN)NC1=O)[C@@H](C)O [colistin], the OD600 was inactive: 1.07.
In the case of `C[N+]1(C)[C@@H]2C[C@@H](OC(=O)C(O)(c3cccs3)c3cccs3)C[C@H]1[C@@H]1O[C@@H]12` [Tiotropium bromide] + CCC(C)CCCC(=O)N[C@@H](CCN)C(=O)N[C@H](C(=O)N[C@@H](CCN)C(=O)N[C@H]1CCNC(=O)[C@H]([C@@H](C)O)NC(=O)[C@H](CCN)NC(=O)[C@H](CCN)NC(=O)[C@H](CC(C)C)NC(=O)[C@@H](CC(C)C)NC(=O)[C@H](CCN)NC1=O)[C@@H](C)O [colistin], the OD600 is reported as inactive: 0.956.
For `N[C@@H](CC(=O)N1CCn2c(nnc2C(F)(F)F)C1)Cc1cc(F)c(F)cc1F` [Sitagliptin] + CCC(C)CCCC(=O)N[C@@H](CCN)C(=O)N[C@H](C(=O)N[C@@H](CCN)C(=O)N[C@H]1CCNC(=O)[C@H]([C@@H](C)O)NC(=O)[C@H](CCN)NC(=O)[C@H](CCN)NC(=O)[C@H](CC(C)C)NC(=O)[C@@H](CC(C)C)NC(=O)[C@H](CCN)NC1=O)[C@@H](C)O [colistin], the OD600 was inactive: 1.1.
In the case of `CCCCCCCCCCCCCCCCCCCCCCO` [1-Docosanol] + CCC(C)CCCC(=O)N[C@@H](CCN)C(=O)N[C@H](C(=O)N[C@@H](CCN)C(=O)N[C@H]1CCNC(=O)[C@H]([C@@H](C)O)NC(=O)[C@H](CCN)NC(=O)[C@H](CCN)NC(=O)[C@H](CC(C)C)NC(=O)[C@@H](CC(C)C)NC(=O)[C@H](CCN)NC1=O)[C@@H](C)O [colistin], the OD600 is reported as inactive: 1.01.
In the case of `Cn1c(=O)cc(N2CCC[C@@H](N)C2)n(Cc2ccccc2C#N)c1=O` [Alogliptin Benzoate] + CCC(C)CCCC(=O)N[C@@H](CCN)C(=O)N[C@H](C(=O)N[C@@H](CCN)C(=O)N[C@H]1CCNC(=O)[C@H]([C@@H](C)O)NC(=O)[C@H](CCN)NC(=O)[C@H](CCN)NC(=O)[C@H](CC(C)C)NC(=O)[C@@H](CC(C)C)NC(=O)[C@H](CCN)NC1=O)[C@@H](C)O [colistin], the OD600 is reported as inactive: 0.9.
`Cc1ccccc1C(=O)Nc1ccc(C(=O)N2CCCC(O)c3cc(Cl)ccc32)c(C)c1` (centres undefined) [Tolvaptan] + CCC(C)CCCC(=O)N[C@@H](CCN)C(=O)N[C@H](C(=O)N[C@@H](CCN)C(=O)N[C@H]1CCNC(=O)[C@H]([C@@H](C)O)NC(=O)[C@H](CCN)NC(=O)[C@H](CCN)NC(=O)[C@H](CC(C)C)NC(=O)[C@@H](CC(C)C)NC(=O)[C@H](CCN)NC1=O)[C@@H](C)O [colistin] was tested, and the OD600 was inactive: 0.762.
In the case of `O=C(Nc1ccc([N+](=O)[O-])cc1Cl)c1cc(Cl)ccc1O` [Niclosamide] + CCC(C)CCCC(=O)N[C@@H](CCN)C(=O)N[C@H](C(=O)N[C@@H](CCN)C(=O)N[C@H]1CCNC(=O)[C@H]([C@@H](C)O)NC(=O)[C@H](CCN)NC(=O)[C@H](CCN)NC(=O)[C@H](CC(C)C)NC(=O)[C@@H](CC(C)C)NC(=O)[C@H](CCN)NC1=O)[C@@H](C)O [colistin], the OD600 is reported as active: 0.038.
`CSc1ccc(OCc2ncc([N+](=O)[O-])n2C)cc1` [Fexinidazole] + CCC(C)CCCC(=O)N[C@@H](CCN)C(=O)N[C@H](C(=O)N[C@@H](CCN)C(=O)N[C@H]1CCNC(=O)[C@H]([C@@H](C)O)NC(=O)[C@H](CCN)NC(=O)[C@H](CCN)NC(=O)[C@H](CC(C)C)NC(=O)[C@@H](CC(C)C)NC(=O)[C@H](CCN)NC1=O)[C@@H](C)O [colistin] was tested, and the OD600 was inactive: 0.975.
For `Nc1nc(=O)n([C@@H]2CS[C@H](CO)O2)cc1F` [Emtricitabine] + CCC(C)CCCC(=O)N[C@@H](CCN)C(=O)N[C@H](C(=O)N[C@@H](CCN)C(=O)N[C@H]1CCNC(=O)[C@H]([C@@H](C)O)NC(=O)[C@H](CCN)NC(=O)[C@H](CCN)NC(=O)[C@H](CC(C)C)NC(=O)[C@@H](CC(C)C)NC(=O)[C@H](CCN)NC1=O)[C@@H](C)O [colistin], the OD600 was inactive: 0.905.
